Results published in patent US20250197496A1.
These are yes or no findings as the source states them, for the method shown.

Amino acid sequences for entries named in this document (tags omitted). A change or cut given only in a name is not applied to a line headed by its entry.
UniProt P07766: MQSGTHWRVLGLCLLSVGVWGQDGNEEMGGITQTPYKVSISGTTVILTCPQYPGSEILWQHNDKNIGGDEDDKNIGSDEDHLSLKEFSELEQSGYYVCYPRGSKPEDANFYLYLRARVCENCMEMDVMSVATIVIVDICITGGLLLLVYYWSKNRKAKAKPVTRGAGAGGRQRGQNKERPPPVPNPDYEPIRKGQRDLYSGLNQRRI

Tests used:
[1] = target: human CD3 epsilon (recombinant, plate-coated) (human) (UniProt P07766); assay: sandwich ELISA, plate coated with CD3ε, luminescence (RLU)
[2] = target: T1, Human ULBP2 (recombinant) (human) (UniProt Q9BZM5); assay: sandwich ELISA, plate coated with recombinant ULBP2, luminescence (RLU)
T1 sequence: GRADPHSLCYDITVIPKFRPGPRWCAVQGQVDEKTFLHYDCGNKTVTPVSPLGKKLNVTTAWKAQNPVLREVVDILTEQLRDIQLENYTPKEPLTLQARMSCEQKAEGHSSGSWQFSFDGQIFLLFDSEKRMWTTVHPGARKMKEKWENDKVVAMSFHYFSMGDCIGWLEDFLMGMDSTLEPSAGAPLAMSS

binding [1]: no binding (tested: 10000 ng/mL) | binding [2]: no binding (tested: 10 µg/mL)
B1: iso-control EIP0120 (antibody, human IgG1, kappa, V domains shown)
VH: QVQLVQSGAEVKKPGASVKVSCQASGYRFSNFVIHWVRQAPGQRFEWMGWINPYNGNKEFSAKFQDRVTFTADTSANTAYMELRSLRSADTAVYYCARVGPYSWDDSPQDNYYMDVWGKGTTVIVSS
VL: EIVLTQSPGTLSLSPGERATFSCRSSHSIRSRRVAWYQHKPGQAPRLVIHGVSNRASGISDRFSGSGSGTDFTLTITRVEPEDFALYYCQVYGASSYTFGQGTKLERKR
